Literature values as cited in US9303016B2, “Derivatives of aza adamantane and uses thereof” (CONNEXIOS LIFE SCIENCES PVT. LTD., priority 2011, dated 2016).
For at least one compound, name, drawing or mass did not settle the structure.

Tested on: 11β-HSD-1
Conditions: Zuker diabetic rats, troglitazone treatment; cited from earlier work

Cc1c(C)c2c(c(C)c1O)CCC(C)(COc1ccc(CC3SC(=O)NC3=O)cc1)O2 (stereo not shown) [troglitazone]
decline in expression of 11β-HSD-1 in the islets: 40%
